The source of these data is the supplement of paper PMC12823440, “Inhibitors supercharge kinase turnover through native proteolytic circuits” (Nature, 2025).

Chains of the proteins cited; added tags and fusions are not shown.
UniProt P49137, whole entry, looked up: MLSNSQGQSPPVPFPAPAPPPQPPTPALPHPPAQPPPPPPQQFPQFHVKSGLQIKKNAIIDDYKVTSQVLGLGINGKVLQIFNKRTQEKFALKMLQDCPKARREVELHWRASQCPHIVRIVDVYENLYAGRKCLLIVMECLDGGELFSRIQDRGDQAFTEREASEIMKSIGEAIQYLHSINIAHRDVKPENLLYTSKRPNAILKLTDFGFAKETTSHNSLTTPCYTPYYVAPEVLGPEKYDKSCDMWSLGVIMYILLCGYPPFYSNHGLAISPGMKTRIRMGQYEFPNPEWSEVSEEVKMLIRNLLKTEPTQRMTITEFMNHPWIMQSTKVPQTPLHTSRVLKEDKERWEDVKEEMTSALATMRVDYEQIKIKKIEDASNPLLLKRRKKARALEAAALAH

Structures can show the parent of a compound that is named as a salt. Some of the results follow. The calls rarely recur for the same compound in another form.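 In K562 cells expressing nanoluciferase-fused kinases, luminescence was recorded at 4 h intervals between 2 and 18 h, normalized as percent of control with DMSO at 100% and a positive control at 0%. A significant (2 sigma) signal drop marks a time point as decreased. The authors' rule for a hit is not shown and takes in more than the number of time points.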

For this test, the target named is MAPKAPK2 (UniProt P49137). As to the kind of experiment: number of time points (of 5) at which kinase-Nluc abundance scored as decreased, DMSO-normalised (count); higher = more persistent destabilization. The settings on record: K562; 2-18 h.
Take `C=C(CCC=C(C)C)[C@H]1CC[C@]2(C)[C@@H]1[C@H](O)C[C@@H]1[C@@]3(C)CC[C@H](O[C@@H]4O[C@H](CO)[C@@H](O)[C@H](O)[C@H]4O[C@@H]4O[C@H](CO)[C@@H](O)[C@H](O)[C@H]4O)C(C)(C)[C@@H]3CC[C@]12C` [Ginsenoside Rk1] (10 µM): the “number of time points” value amounted to 0.
`CCn1c(=O)c(-c2ccc(-c3cncs3)cc2Cl)cc2cnc(Nc3ccc(N4CCN(C)CC4)cc3)nc21` (2.5 µM): the “number of time points” value was 0.
To `Nc1nccc(Oc2ccc(NC(=O)c3cn(COP(=O)(O)O)cc(-c4ccc(F)cc4)c3=O)cc2F)c1Cl` (10 µM) belongs 0.
To `Cc1cc(-c2cc(OC(=O)c3ccccc3)ccc2Cl)cc2nnc(Nc3ccc(OCCN4CCCC4)cc3)nc12` (0.5 µM) belongs 0.
To `OC[C@H]1O[C@@H](Oc2cc3c(O)cc(O)cc3[o+]c2-c2cc(O)c(O)c(O)c2)[C@H](O)[C@@H](O)[C@@H]1O` [Delphinidin 3-glucoside (chloride)] (10 µM) belongs 0; to `O=C(/C=C/c1ccc(O)c(O)c1)c1ccc(O[C@@H]2O[C@H](CO)[C@@H](O)[C@H](O)[C@H]2O)c(O)c1O` [Marein] (10 µM), 0; to `O=C1Nc2nc(-c3c(O)cccc3OCC3CC3)cc([C@@H]3CCCNC3)c2CO1` [Bay 65-1942 (hydrochloride)] (10 µM), 0.
`CC(C)CN(CC(=O)N1CCN(CC(OCc2ccc3ccccc3c2)c2ccc(Cl)cc2Cl)CC1)CC(C)C` (stereo not drawn) [LYN-1604 (dihydrochloride)] (2.5 µM): the “number of time points” value is 0.
To `CCc1cc(O)c(F)cc1-c1ccc2c(-c3nc4c([nH]3)CN(C3CCN(C)CC3)CC4)n[nH]c2c1` [JAK-IN-5 (hydrochloride)] (2 µM) belongs 0; to `Cc1ccc(Nc2cc(-c3cccc(N4C(=O)c5ccccc5C4=O)c3)ncn2)cc1NS(C)(=O)=O` (10 µM), 0; to `C=C1C(=O)O[C@@H]2C[C@@]3(C)CCC[C@H](C)C3=C[C@H]12` [Alantolactone] (10 µM), 0.
Regarding `C=C(C)C(=O)Nc1cccc(-c2ncnc3[nH]cc(C(=O)OCC)c23)c1` (10 µM), the “number of time points” value was determined as 0.
To `CNc1nc(Nc2cnn(C3CCN(C4COC4)CC3F)c2Cl)ncc1C(F)(F)F` (stereo not drawn) (10 µM) belongs 0.
To `Cc1cc(Nc2cc(Cl)nc(Oc3ccc([N+](=O)[O-])cc3)n2)n[nH]1` [Autophinib] (2.5 µM) belongs 0; to `CC(C)=CC[C@H](O)C1=CC(=O)c2c(O)ccc(O)c2C1=O` [(-)-Alkannin] (2.5 µM), 0; to `CNCc1ccccc1-c1csc([C@@H](C)Nc2nc(C)nc3cc(OC)c(OC)cc23)c1` (2.5 µM), 0.
To `COc1ncc(-c2nc(N3CCOCC3)nc3c(CN4CCC(C(C)(C)O)CC4)cc(F)cc23)cc1NS(C)(=O)=O` [Linperlisib] (10 µM) belongs 0; to `O=C(Nc1ccc(F)cc1F)[C@H](NC(=S)Nc1cc(C(F)(F)F)cc(C(F)(F)F)c1)c1ccccc1` (2.5 µM), 0.
For the compound `O=C1NC(=O)C(=Cc2ccc(-c3ccc(F)cc3)o2)S1` (stereo in doubt) (10 µM), the “number of time points” value was found to be 0.
To `CCOc1cc(C(=O)N2CCC(N3CCN(C)CC3)CC2)ccc1Nc1ncc2c(n1)N(C1CCCC1)c1ccccc1C(=O)N2C` (10 µM) belongs 0.
Consider `OC(COc1ccc(C(F)(F)F)cc1)CN(Cc1ccccc1)Cc1ccccc1` (stereo not drawn) (2.5 µM), for which the “number of time points” value was found to be 0.
Take `C[C@@H]1C(=O)O[C@H](C)[C@H]1C[C@@H](O)[C@](C)(O)[C@H]1CC[C@@]2(O)C3=CC(=O)[C@@H]4C[C@@H](O)[C@@H](O)C[C@]4(C)[C@H]3CC[C@]12C` [Cyasterone] (10 µM): the “number of time points” value worked out at 0.
To `Cc1c(CN2CCN(C(=O)[C@H](C)O)CC2)sc2c(N3CCOCC3)nc(-c3cnc(N)nc3)nc12` [Apitolisib] (10 µM) belongs 0; to `CC(C)(C)NC(=O)c1cncn1C1CCN(c2ccc(-c3nnc(C(F)(F)F)o3)cn2)CC1` (10 µM), 0; to `NCc1ccc(Nc2ncc(F)c(Nc3ccccc3)n2)cc1` (10 µM), 0.
The value for `COC1(c2sc3c(N4CCOCC4)nc(-c4cnc(N)nc4)nc3c2C)COC1` (2.5 µM) was 0.
Consider `COc1cc2c[n+](C)c3c4cc5c(cc4ccc3c2cc1OC)OCO5` [Nitidine (chloride)] (2 µM), for which the “number of time points” value is 0.
`N#Cc1ccc2ncnc(NC3CCC(N4CCOCC4)CC3)c2c1` (stereo not drawn) (10 µM): the “number of time points” value is 0.
